Data from PubChem BioAssay AID248 (DTP/NCI, 2004).
The list shows only some results of the screen, not a fair sample: it gathers tests that were run many times, whatever their T/C, doses with no T/C, and many T/C values between a quarter and a half above the control. Other doses and runs of a compound stand elsewhere. T/C gives the treated animals as a percentage of the vehicle group. Some doses have a count of surviving animals in place of a T/C: the source holds a T/C of zero for them, seemingly a mark for toxic or unscored doses. Some survivor counts are full or nearly so, which does not show that the dose was tolerated: the source hardly ever lists a survival T/C far under the control, and the zero likely stands for such cases as well. Survivors were counted at the toxicity check, usually on the fifth day, unless a day is given; later deaths do not show. Schedules are NCI's codes, read here as Q, the interval in days (D) or hours (H), X, the number of doses. Some schedule codes hold Z or #, which are not explained here. Some structures stand for samples that the source files as different forms (salt, stereo form or complex); doses refer to the form tested. Where survival is the endpoint, the PubChem record calls one and a half times the control and up active, and a quarter to a half above the control has no call in these data; cut-offs in other NCI protocols can differ. Signs of the kind (2×) stand for listed records that agree. Some T/C values are followed by the survivors on the day toxicity was checked, most often the fifth; without a count, all were alive then.

Test system: L1210 leukemia ip in BDF1 mice, survival T/C
Assay: NCI In Vivo Anticancer Drug Screen. Data for tumor model L1210 Leukemia (intraperitoneal) in B6D2F1 (BDF1) mice
Details: T/C endpoint: mean survival time, higher T/C = longer survival
[1] = dose: 100.0 mg/kg/injection, schedule: Q01DX009 (ip), vehicle: Klucel (hydroxypropylcellulose) (HPC)
[2] = dose: 400.0 mg/kg/injection, schedule: Q04DX002 (ip), vehicle: Klucel (hydroxypropylcellulose) (HPC)
[3] = dose: 50.0 mg/kg/injection, schedule: Q01DX009 (ip), vehicle: Klucel (hydroxypropylcellulose) (HPC)
[4] = dose: 400.0 mg/kg/injection, schedule: Q01DX009 (ip), vehicle: Klucel (hydroxypropylcellulose) (HPC)
[5] = dose: 100.0 mg/kg/injection, schedule: Q04DX003 (ip), vehicle: Klucel (hydroxypropylcellulose) (HPC)
[6] = dose: 200.0 mg/kg/injection, schedule: Q04DX003 (ip), vehicle: Klucel (hydroxypropylcellulose) (HPC)
[7] = dose: 400.0 mg/kg/injection, schedule: Q04DX003 (ip), vehicle: Klucel (hydroxypropylcellulose) (HPC)
[8] = dose: 100.0 mg/kg/injection, schedule: Q04DX003 (ip), vehicle: saline with Tween-80
[9] = dose: 200.0 mg/kg/injection, schedule: Q01DX001 (ip), vehicle: saline
[10] = dose: 400.0 mg/kg/injection, schedule: Q01DX001 (ip), vehicle: saline
[11] = dose: 25.0 mg/kg/injection, schedule: Q01DX009 (ip), vehicle: saline with Tween-80
[12] = dose: 50.0 mg/kg/injection, schedule: Q01DX009 (ip), vehicle: saline with Tween-80

Question: How did the T/C (dose: 5.0 mg/kg/injection, schedule: Q01DX009 (ip), vehicle: steroid suspending solution) turn out when `COc1cc2c(cc1OC)C(OC)N(C)c1c-2ccc2cc3c(cc12)OCO3` (configuration not stated) was run?
Answer: 134 % of control

Question: And the T/C (dose: 5.0 mg/kg/injection, schedule: Q01DX009 (ip), vehicle: water)?
Answer: 128 % of control

Question: What about the T/C (dose: 10.0 mg/kg/injection, schedule: Q01DX009 (ip), vehicle: steroid suspending solution) of the same molecule?
Answer: 129 % of control

Question: And the T/C (dose: 10.0 mg/kg/injection, schedule: Q01DX009 (ip), vehicle: water)?
Answer: 127 % of control

Question: And the T/C (dose: 20.0 mg/kg/injection, schedule: Q01DX009 (ip), vehicle: saline)?
Answer: 131 % of control

Question: And the T/C (dose: 20.0 mg/kg/injection, schedule: Q01DX009 (ip), vehicle: water)?
Answer: 134 % of control

Question: What about the T/C (dose: 40.0 mg/kg/injection, schedule: Q01DX009 (ip), vehicle: saline) of the same molecule?
Answer: 131 % of control

Question: What about the T/C (dose: 40.0 mg/kg/injection, schedule: Q01DX009 (ip), vehicle: steroid suspending solution) of the same molecule?
Answer: 133 % of control [3 of 4 alive]

Question: And the T/C (dose: 40.0 mg/kg/injection, schedule: Q01DX009 (ip), vehicle: water)?
Answer: 148 % of control

Question: And the T/C (dose: 80.0 mg/kg/injection, schedule: Q01DX009 (ip), vehicle: saline)?
Answer: 147 % of control

Question: What about the T/C [1] of the same molecule?
Answer: 126 % of control (2×)

Question: What about the T/C (dose: 200.0 mg/kg/injection, schedule: Q04DX002 (ip), vehicle: Klucel (hydroxypropylcellulose) (HPC)) of the same molecule?
Answer: 133 % of control

Question: What about the T/C [2] of the same molecule?
Answer: 126 % of control

Question: Which survivor count [3] does the source give for `Nc1cc[n+](-c2ccc([N+](=O)[O-])cc2[N+](=O)[O-])cc1` here?
Answer: 0 of 6

Question: What about the survivor count [1] of the same molecule?
Answer: 0 of 6

Question: What about the survivor count (dose: 200.0 mg/kg/injection, schedule: Q01DX009 (ip), vehicle: Klucel (hydroxypropylcellulose) (HPC)) of the same molecule?
Answer: 0 of 6

Question: And the survivor count [4]?
Answer: 0 of 6

Question: `CCC(COS(=O)(=O)c1ccc(C)cc1)[N+](=O)[O-]` (configuration not stated) was tested. Which survivor count [5] did it give?
Answer: 3 of 6

Question: What about the survivor count [6] of the same molecule?
Answer: 0 of 6

Question: And the survivor count [7]?
Answer: 6 of 6

Question: For `C=CCc1c[nH]c(=S)[nH]c1=O.[Hg]`, which survivor count (dose: 25.0 mg/kg/injection, schedule: Q01DX001 (ip), vehicle: Klucel (hydroxypropylcellulose) (HPC)) is on record?
Answer: 2 of 6

Question: And the survivor count (dose: 25.0 mg/kg/injection, schedule: Q01DX009 (ip), vehicle: Klucel (hydroxypropylcellulose) (HPC))?
Answer: 5 of 6

Question: And the survivor count (dose: 25.0 mg/kg/injection, schedule: Q04DX003 (ip), vehicle: Klucel (hydroxypropylcellulose) (HPC))?
Answer: 4 of 5

Question: And the survivor count (dose: 100.0 mg/kg/injection, schedule: Q01DX001 (ip), vehicle: Klucel (hydroxypropylcellulose) (HPC))?
Answer: 0 of 6

Question: What about the survivor count (dose: 200.0 mg/kg/injection, schedule: Q01DX001 (ip), vehicle: Klucel (hydroxypropylcellulose) (HPC)) of the same molecule?
Answer: 0 of 6

Question: And the survivor count (dose: 400.0 mg/kg/injection, schedule: Q01DX001 (ip), vehicle: Klucel (hydroxypropylcellulose) (HPC))?
Answer: 0 of 5

Question: `CCCCCCCCCCCCSCCCN` was tested. Which survivor count [8] did it give?
Answer: 4 of 6

Question: And the survivor count (dose: 200.0 mg/kg/injection, schedule: Q04DX003 (ip), vehicle: saline with Tween-80)?
Answer: 0 of 6

Question: And the survivor count (dose: 400.0 mg/kg/injection, schedule: Q04DX003 (ip), vehicle: saline with Tween-80)?
Answer: 3 of 6

Question: How did the survivor count [4] turn out when `O=C(Nc1cccc(C(F)(F)F)c1)Oc1ccccc1F` was run?
Answer: 5 of 6

Question: What does the source list for `C[N+](C)(C)CCOC(=O)c1ccc(CBr)cc1`?
Answer: survivor count (dose: 200.0 mg/kg/injection, schedule: Q01DX009 (ip), vehicle: saline): 5 of 6; survivor count (dose: 200.0 mg/kg/injection, schedule: Q04DX002 (ip), vehicle: saline): 1 of 3; survivor count (dose: 400.0 mg/kg/injection, schedule: Q01DX009 (ip), vehicle: saline): 0 of 6; survivor count (dose: 400.0 mg/kg/injection, schedule: Q04DX002 (ip), vehicle: saline): 0 of 3

Question: How did the survivor count (dose: 150.0 mg/kg/injection, schedule: Q01DX001 (ip), vehicle: other) turn out when `O=C1CCC2CN3CCc4c([nH]c5ccccc45)C3CC2C1` (configuration not stated) was run?
Answer: 3 of 6

Question: What about the survivor count (dose: 300.0 mg/kg/injection, schedule: Q01DX001 (ip), vehicle: other) of the same molecule?
Answer: 0 of 6

Question: Which survivor count (dose: 200.0 mg/kg/injection, schedule: Q01DX005 (ip), vehicle: Klucel (hydroxypropylcellulose) (HPC)) does the source give for `CC(=O)CC(=O)C(F)(F)F.CC(=O)CC(=O)C(F)(F)F.[Mn]` here?
Answer: 2 of 3

Question: And the survivor count [2]?
Answer: 3 of 3

Question: How did the survivor count (dose: 400.0 mg/kg/injection, schedule: Q04DX003 (ip), vehicle: saline) turn out when `C1=C(N2CCOCC2)CCC(N2CCOCC2)=C1` was run?
Answer: 6 of 6

Question: Which survivor count [5] does the source give for `O=C(c1ccccc1)C1CSSC1c1ccccc1` (configuration not stated) here?
Answer: 2 of 6

Question: And the survivor count [6]?
Answer: 2 of 6

Question: And the survivor count [7]?
Answer: 0 of 6

Question: `CCc1c(Nc2ccccc2Cl)nc(N)[nH]c1=O` was tested. Which survivor count (dose: 200.0 mg/kg/injection, schedule: Q01DX Z (ip), vehicle: methylcellulose (MC)) did it give?
Answer: 6 of 6

Question: How did the survivor count [9] turn out when `CCOC(=O)C(CCSC)(CCN(C)Cc1ccccc1)C(=O)OCC` was run?
Answer: 1 of 4

Question: What about the survivor count [10] of the same molecule?
Answer: 2 of 4

Question: Which survivor count [2] does the source give for `CCCCN1CCN(CCCC)C1=O` here?
Answer: 2 of 3

Question: What does the source list for `COc1cc2c(cc1NC(=O)N(CCCl)N=O)-c1ccccc1C2`?
Answer: T/C (dose: 30.0 mg/kg/injection, schedule: Q01DX001 (ip), vehicle: carboxymethylcellulose (CMC)): 139 % of control; T/C (dose: 60.0 mg/kg/injection, schedule: Q01DX001 (ip), vehicle: carboxymethylcellulose (CMC)): 133 % of control; T/C (dose: 120.0 mg/kg/injection, schedule: Q01DX001 (ip), vehicle: carboxymethylcellulose (CMC)): 144 % of control; T/C (dose: 177.0 mg/kg/injection, schedule: Q01DX001 (ip), vehicle: carboxymethylcellulose (CMC)): 145 % of control

Question: For `ClCCN(CCCl)CCCN1c2ccccc2Sc2ccccc21`, which survivor count [11] is on record?
Answer: 2 of 6

Question: And the T/C (dose: 25.0 mg/kg/injection, schedule: Q04DX003 (ip), vehicle: saline with Tween-80)?
Answer: 125 % of control

Question: And the survivor count [12]?
Answer: 0 of 6

Question: And the survivor count [8]?
Answer: 3 of 6

Question: `CC1(C)N=C(N)N=C(N)N1c1cccc(OCCCOc2cccc(NC(=O)CBr)c2)c1` was tested. Which survivor count (dose: 80.0 mg/kg/injection, schedule: Q01DX001 (ip), vehicle: saline) did it give?
Answer: 3 of 6

Question: And the survivor count (dose: 100.0 mg/kg/injection, schedule: Q01DX001 (ip), vehicle: saline)?
Answer: 1 of 6

Question: And the survivor count [9]?
Answer: 0 of 6

Question: What about the survivor count [10] of the same molecule?
Answer: 0 of 6

Question: What does the source list for `CN(C)C(=S)Oc1ccccn1`?
Answer: survivor count [6]: 3 of 6; survivor count [7]: 0 of 6

Question: Which results are given for `COc1ccc2c3c1OC1C(C)=CCC4C(C2)N(C)CCC314` (configuration not stated)?
Answer: survivor count (dose: 150.0 mg/kg/injection, schedule: Q01DX001 (ip), vehicle: saline): 0 of 6; survivor count (dose: 300.0 mg/kg/injection, schedule: Q01DX001 (ip), vehicle: saline): 1 of 6

Question: Which results are given for `BrCCC[P+](c1ccccc1)(c1ccccc1)c1ccccc1`?
Answer: survivor count [11]: 6 of 6; survivor count [12]: 0 of 6; survivor count [5]: 5 of 6; survivor count [8]: 5 of 6; survivor count [9]: 1 of 4; survivor count [6]: 0 of 6; survivor count [10]: 0 of 4

Question: For `NC(N)=Nc1cccc(OCCCOc2ccccc2)c1`, which survivor count (dose: 75.0 mg/kg/injection, schedule: Q01DX001 (ip), vehicle: saline with Tween-80) is on record?
Answer: 6 of 6

Question: What does the source list for `CC(C)(C)C(=O)CC(=O)C(C)(C)C.CC(C)(C)C(=O)CC(=O)C(C)(C)C.[Ni]`?
Answer: survivor count (dose: 75.0 mg/kg/injection, schedule: Q04DX003 (ip), vehicle: saline): 1 of 6; survivor count (dose: 150.0 mg/kg/injection, schedule: Q04DX003 (ip), vehicle: saline): 0 of 6; survivor count (dose: 300.0 mg/kg/injection, schedule: Q04DX003 (ip), vehicle: saline): 0 of 6

Question: What does the source list for `N#CCCC(CCC#N)c1cccc(C(CCC#N)CCC#N)n1`?
Answer: survivor count [6]: 6 of 6; survivor count [7]: 6 of 6

Question: For `CC(C)(C)C#C/C(=N\Nc1ccc([N+](=O)[O-])cc1[N+](=O)[O-])c1ccccc1`, which survivor count (dose: 200.0 mg/kg/injection, schedule: Q04DX002 (ip), vehicle: saline with Tween-80) is on record?
Answer: 3 of 3

Question: With `N#CSc1ccc(Nc2ccc(SC#N)cc2)cc1` as the molecule, how does the survivor count [3] read?
Answer: 6 of 6
